Consider one compound from patent US5776685A, “Protein kinase C assay” (Joslin Diabetes Center, priority 1996, dated 1998).

This test concerns bovine PKC alpha. In words: PKC catalytic activity in vitro (phosphorylation of [ser25]PKC19-31 in detergent cell extracts). Type of test: biochemical. Here is the method:
FIG. 4 is a graph which compares PKC mutant and wild type catalytic activities in vitro. […] Catalytic activity was stimulated by combinations of phosphatidylserine (PS), the phorbol ester PMA and calcium ions (Ca^2+). PS, open; PMA+PS, solid; Ca^2+ +PS, diagonally striped.
Cell lysis. About 6×10^8 expressing cells were washed in PBS and were resuspended in 1 ml lysis buffer containing 1% Triton X100, 50 mM Hepes pH 7.4, 15-mM NaC1, 5 mM EDTA, 5 mM EGTA, 10 μg/ml pepstatin, 40 μg/ml leupeptin, 10 μg/ml aprotinin and 200 μg/ml PMSF. Cell suspensions mixed with the same volume of acid washed glass beads (450-500 μm) were lysed mechanically by six 30 second vortexing steps interrupted by cooling on ice for at least 30 second in 50 ml screw cap polypropylene tubes. The lysate was cleared by 4,000 g centrifugation for 15 minutes at 4 degrees C and stored at […] for up to several weeks.
PKC catalytic activity. […] Phosphatidylserine in chloroform, with or without PMA was evaporated under N2 to dryness, resuspended in 20 mM Tris pH 7.5, mixed and sonicated at 4 degrees C for 45 seconds before use. To terminate the reaction the sample was placed on phosphocellulose paper (Whatman P81) which was repeatedly washed in 75 mM phosphoric acid. Bound radioactivity was determined by liquid scintillation spectroscopy.

Consider `CN[C@@H]1C[C@H]2O[C@@](C)([C@@H]1OC)n1c3ccccc3c3c4c(c5c6ccccc6n2c5c31)C(=O)NC4` [staurosporine, reference compound], for which the “inhibition of PKC alpha catalytic activity” value is “efficiently inhibited”.
